Source: the supplement of paper PMC4604168 (melanoma cell lines)
Some of the results follow. Repeats are few or missing, and single values can be far off.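 Imaging used 1,536-well plates; nuclei positive for cleaved PARP by antibody were divided by total DNA-stained nuclei to yield the apoptosis fraction. Doses for screening kept most cells viable, and cell lines differ markedly in resting and induced cleaved-PARP levels.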

Assays:
Test in all cases: cleaved PARP positive nuclei fraction relative to DMSO control; melanoma cells; higher = more apoptosis
Conditions in all cases: library dose: low library concentration; 72 h
[1] = system: 501Mel
[2] = system: A101D
[3] = system: A2058
[4] = system: A375
[5] = system: C32
[6] = system: CBRC008 (line from a melanoma biopsy)
[7] = system: CBRC014 (line from a melanoma biopsy)
[8] = system: CBRC016 (line from a melanoma biopsy)
[9] = system: CBRC017 (line from a melanoma biopsy)
[10] = system: CBRC013 (line from a melanoma biopsy)

Row | SMILES | cleaved PARP positive nuclei fraction [1] [%] | cleaved PARP positive nuclei fraction [2] [%] | cleaved PARP positive nuclei fraction [3] [%] | cleaved PARP positive nuclei fraction [4] [%] | cleaved PARP positive nuclei fraction [5] [%] | cleaved PARP positive nuclei fraction [6] [%] | cleaved PARP positive nuclei fraction [7] [%] | cleaved PARP positive nuclei fraction [8] [%] | cleaved PARP positive nuclei fraction [9] [%] | cleaved PARP positive nuclei fraction [10] [%]
1 | C[C@@H](N)c1ccc(C(=O)Nc2ccnc3[nH]ccc23)cc1 + N.N.[Cl][Pt][Cl] [cisplatin] (first compound 0.4 µM, partner dose 1.6 µM) | 109 | 198 | 125 | 35.5 | 80.2 | 290 | 99.5 | 179 | 136 | –
2 | Cc1ccc(Nc2nccc(N(C)c3ccc4c(C)n(C)nc4c3)n2)cc1S(N)(=O)=O [Pazopanib] + C[C@]12O[C@H](C[C@]1(O)CO)n1c3ccccc3c3c4c(c5c6ccccc6n2c5c31)CNC4=O [Lestaurtinib] (first compound 0.4 µM, partner dose 0.004 µM) | 72.1 | 51.8 | 179 | 186 | 82.5 | 81.6 | 116 | 65.9 | 104 | –
3 | CC(C)C[C@H](NC(=O)[C@H](Cc1ccccc1)NC(=O)c1cnccn1)B(O)O [Bortezomib] + N.N.[Cl][Pt][Cl] [cisplatin] (first compound 0.001 µM, partner dose 1.6 µM) | 6520 | 1740 | 59 | 24.3 | 86.1 | 698 | 192 | 324 | 521 | –
4 | O=C(O)[C@@H]1[O][Sb](=[O])([O][Sb]2(=[O])[O][C@H]([C@H](O)CO)[C@H](O)[C@H](C(=O)O)[O]2)[O][C@H]([C@H](O)CO)[C@@H]1O (stereo partly drawn) [stibogluconate] + C[As](C)SC[C@H](NC(=O)CC[C@H](N)C(=O)O)C(=O)NCC(=O)O [Darinaparsin] (first compound 2 µM, partner dose 0.4 µM) | 101 | 169 | 107 | 52.2 | 71 | 52.9 | 96.1 | 150 | 100 | –
5 | O=C(Oc1ccc([N+](=O)[O-])cc1)N1CCC(C(O)(c2ccc3c(c2)OCO3)c2ccc3c(c2)OCO3)CC1 + O=c1cc(-c2cccc3c2Sc2ccccc2S3)oc(N2CCOCC2)c1 [KU55933] (first compound 1 µM, partner dose 1 µM) | 72.9 | 146 | 113 | 169 | 88.2 | – | 103 | 45.8 | 83.5 | 199
6 | NCC(=O)Nc1ccc(-n2nc(C(F)(F)F)cc2-c2ccc3c(ccc4ccccc43)c2)cc1 + C/C(O)=C(\C#N)C(=O)Nc1cc(Br)ccc1Br [LFM-A13] (first compound 1 µM, partner dose 2 µM) | 1740 | 35.5 | 62 | 4050 | 128 | – | 107 | 60.1 | 93.3 | 200
7 | c1cc(-c2cnn3cc(-c4ccc(OCCN5CCCCC5)cc4)cnc23)ccn1 [Dorsomorphin] + O=C(Oc1ccc([N+](=O)[O-])cc1)N1CCC(C(O)(c2ccc3c(c2)OCO3)c2ccc3c(c2)OCO3)CC1 [JZL184] (first compound 0.4 µM, partner dose 1 µM) | 38.6 | 83.9 | 95.7 | 24.8 | 68.9 | – | 84.4 | 62.4 | 57.6 | 358
8 | Cc1cc(N2CCOCC2)cc2[nH]c(-c3c(NC[C@@H](O)c4cccc(Cl)c4)cc[nH]c3=O)nc12 + C/C(O)=C(\C#N)C(=O)Nc1cc(Br)ccc1Br [LFM-A13] (first compound 0.2 µM, partner dose 2 µM) | 32.5 | 117 | 132 | 97.4 | 114 | – | 110 | 40.6 | 82.1 | 85.8
9 | NC(=O)Nc1cc(-c2cccc(F)c2)sc1C(=O)N[C@H]1CCCNC1 + Cc1cc(SCc2sc(-c3ccc(C(F)(F)F)c(F)c3)nc2C)ccc1OCC(=O)O [GW0742] (first compound 0.02 µM, partner dose 2 µM) | 99.7 | 67.6 | 72.1 | 582 | 148 | – | 93.4 | 72 | 87.2 | 56.7
10 | COc1ccc(COc2ccc(Cc3cnc(N)nc3N)cc2OC)cc1 + C/C(O)=C(\C#N)C(=O)Nc1cc(Br)ccc1Br [LFM-A13] (first compound 1 µM, partner dose 2 µM) | 64.5 | 109 | 72.5 | 164 | 62.6 | – | 88 | 34.9 | 80.5 | 182
11 | C[As](C)SC[C@H](NC(=O)CC[C@H](N)C(=O)O)C(=O)NCC(=O)O [Darinaparsin] + O=C1NC(=O)/C(=C/c2ccc(-c3ccc(F)cc3O)o2)S1 [AS252424] (first compound 0.4 µM, partner dose 1 µM) | 199 | 299 | 99.5 | 54.1 | 208 | – | 86.6 | 76.7 | 110 | 82.7
12 | O=C(O)C(=O)Nc1sc2c(c1C(=O)O)CCNC2 + C/C(O)=C(\C#N)C(=O)Nc1cc(Br)ccc1Br [LFM-A13] (first compound 1.66667 µM, partner dose 2 µM) | 103 | 243 | 644 | 115 | 84.6 | – | 72.8 | 175 | 68 | 67.3
13 | Cc1cc(SCc2sc(-c3ccc(C(F)(F)F)c(F)c3)nc2C)ccc1OCC(=O)O + CCCCCCCCCCCC1=C(O)C(=O)C=C(O)C1=O [Embelin] (first compound 2 µM, partner dose 1.2 µM) | 83.8 | 182 | 26.3 | 96.8 | 89 | – | 80.8 | 149 | 82 | 55.5
14 | COC(=O)c1sccc1S(=O)(=O)Nc1ccc(Nc2ccccc2)cc1OC + C/C(O)=C(\C#N)C(=O)Nc1cc(Br)ccc1Br [LFM-A13] (first compound 1 µM, partner dose 2 µM) | 28.7 | 114 | 48.6 | 119 | 137 | – | 105 | 78.8 | 393 | 881
15 | Cc1cc(SCc2sc(-c3ccc(C(F)(F)F)c(F)c3)nc2C)ccc1OCC(=O)O + O=C(Oc1ccc([N+](=O)[O-])cc1)N1CCC(C(O)(c2ccc3c(c2)OCO3)c2ccc3c(c2)OCO3)CC1 [JZL184] (first compound 2 µM, partner dose 1 µM) | 96.8 | 57.1 | 107 | 55 | 141 | – | 95.4 | 191 | 97.2 | 84.3
16 | C/C(O)=C(\C#N)C(=O)Nc1cc(Br)ccc1Br + O=C1NC(=O)/C(=C/c2ccc(-c3ccc(F)cc3O)o2)S1 [AS252424] (first compound 2 µM, partner dose 1 µM) | 131 | 117 | 33.9 | 145 | 69.9 | – | 97.8 | 87.6 | 91.2 | 141
17 | Oc1cc(-c2nc(-c3ccccc3)[nH]c2-c2ccncc2)ccc1Cl + O=C(Oc1ccc([N+](=O)[O-])cc1)N1CCC(C(O)(c2ccc3c(c2)OCO3)c2ccc3c(c2)OCO3)CC1 [JZL184] (first compound 0.2 µM, partner dose 1 µM) | 93.5 | 239 | 62.5 | 286 | 89.9 | – | 116 | 84.6 | 151 | 201
18 | C[As](C)SC[C@H](NC(=O)CC[C@H](N)C(=O)O)C(=O)NCC(=O)O [Darinaparsin] + CC(C)CCN1c2nc(Nc3cc(F)c(O)c(F)c3)ncc2N(C)C(=O)C1C [BID1870] (first compound 0.4 µM, partner dose 0.2 µM) | 49.7 | 79.9 | 94.2 | 234 | 64.1 | – | 97.1 | 111 | 72.6 | 188
19 | C/C(O)=C(\C#N)C(=O)Nc1cc(Br)ccc1Br + c1cc(-c2cnn3cc(-c4ccc(OCCN5CCCCC5)cc4)cnc23)ccn1 [Dorsomorphin] (first compound 2 µM, partner dose 0.4 µM) | 87.9 | 125 | 74.7 | 44.6 | 230 | – | 109 | 108 | 140 | 40.1
20 | COc1ccc2c(c1)CCC1C2CCC2(C)C(NCCCCCCN3C(=O)C=CC3=O)CCC12 (stereo not drawn) + C/C(O)=C(\C#N)C(=O)Nc1cc(Br)ccc1Br [LFM-A13] (first compound 0.4 µM, partner dose 2 µM) | 82.8 | 125 | 84.7 | 209 | 60.2 | – | 101 | 184 | 81 | 86.4
21 | COc1ccc(-c2ccc3c(N4CCOCC4)nc(N4C[C@@H](C)O[C@@H](C)C4)nc3n2)cc1CO + C/C(O)=C(\C#N)C(=O)Nc1cc(Br)ccc1Br [LFM-A13] (first compound 0.02 µM, partner dose 2 µM) | 53.3 | 185 | 273 | 217 | 296 | – | 101 | 48.8 | 228 | 78.8
22 | O=C(Nc1cccc(Cl)c1)Nc1ncc(CCNc2ncnc3ccsc23)s1 + C/C(O)=C(\C#N)C(=O)Nc1cc(Br)ccc1Br [LFM-A13] (first compound 0.0008 µM, partner dose 2 µM) | 49 | 44.4 | 128 | 104 | 43 | – | 114 | 132 | 107 | 205

Two entries from above, set out differently.
Row	SMILES	cleaved PARP positive nuclei fraction [1] [%]	cleaved PARP positive nuclei fraction [2] [%]	cleaved PARP positive nuclei fraction [3] [%]	cleaved PARP positive nuclei fraction [4] [%]	cleaved PARP positive nuclei fraction [5] [%]	cleaved PARP positive nuclei fraction [6] [%]	cleaved PARP positive nuclei fraction [7] [%]	cleaved PARP positive nuclei fraction [8] [%]	cleaved PARP positive nuclei fraction [9] [%]	cleaved PARP positive nuclei fraction [10] [%]
14	COC(=O)c1sccc1S(=O)(=O)Nc1ccc(Nc2ccccc2)cc1OC + C/C(O)=C(\C#N)C(=O)Nc1cc(Br)ccc1Br [LFM-A13] (first compound 1 µM, partner dose 2 µM)	28.7	114	48.6	119	137	–	105	78.8	393	881
15	Cc1cc(SCc2sc(-c3ccc(C(F)(F)F)c(F)c3)nc2C)ccc1OCC(=O)O + O=C(Oc1ccc([N+](=O)[O-])cc1)N1CCC(C(O)(c2ccc3c(c2)OCO3)c2ccc3c(c2)OCO3)CC1 [JZL184] (first compound 2 µM, partner dose 1 µM)	96.8	57.1	107	55	141	–	95.4	191	97.2	84.3
